The source of these data is PMC8353798.

Amino acid sequences for entries named in this document (tags omitted).
UniProt P51858: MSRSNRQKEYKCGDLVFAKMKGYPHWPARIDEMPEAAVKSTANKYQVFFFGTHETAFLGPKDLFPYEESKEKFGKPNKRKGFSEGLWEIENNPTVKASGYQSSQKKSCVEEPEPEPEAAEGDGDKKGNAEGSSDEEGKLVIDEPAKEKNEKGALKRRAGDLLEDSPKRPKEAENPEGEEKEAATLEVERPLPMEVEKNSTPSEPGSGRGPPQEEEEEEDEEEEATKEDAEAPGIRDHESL
UniProt P40763: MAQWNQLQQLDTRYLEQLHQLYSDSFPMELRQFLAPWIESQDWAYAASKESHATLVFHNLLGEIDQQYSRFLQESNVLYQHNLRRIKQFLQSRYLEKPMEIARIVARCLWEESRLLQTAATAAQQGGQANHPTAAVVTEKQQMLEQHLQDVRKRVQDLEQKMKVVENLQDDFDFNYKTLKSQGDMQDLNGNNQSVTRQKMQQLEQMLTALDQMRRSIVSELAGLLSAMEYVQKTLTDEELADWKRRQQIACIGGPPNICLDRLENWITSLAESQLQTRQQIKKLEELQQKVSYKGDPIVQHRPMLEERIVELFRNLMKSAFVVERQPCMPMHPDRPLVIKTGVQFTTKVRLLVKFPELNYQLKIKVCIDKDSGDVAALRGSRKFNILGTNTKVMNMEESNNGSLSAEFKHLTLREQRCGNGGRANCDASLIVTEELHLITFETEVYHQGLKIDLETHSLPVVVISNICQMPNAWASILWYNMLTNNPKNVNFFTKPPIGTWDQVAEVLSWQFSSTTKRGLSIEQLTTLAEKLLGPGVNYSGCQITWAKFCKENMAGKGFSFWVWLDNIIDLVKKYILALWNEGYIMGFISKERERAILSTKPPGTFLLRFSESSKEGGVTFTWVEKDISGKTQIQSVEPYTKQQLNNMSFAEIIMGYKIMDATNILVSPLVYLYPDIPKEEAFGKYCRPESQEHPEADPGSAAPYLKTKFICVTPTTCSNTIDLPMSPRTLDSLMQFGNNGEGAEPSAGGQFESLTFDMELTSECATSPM

No constants are given. Whether binding was seen depends on the method and setting. In cells and extracts the contact can be indirect. Here binding means that the protein was enriched with, or labelled near, the bait; the list need not be complete.

In the assay the target is Flag-tagged HDGF (UniProt P51858). As to the kind of experiment: affinity purification with mass spectrometry; Flag pull-down from MDA-MB-231 cells overexpressing Flag-tagged HDGF or a Flag-GFP control, silver staining, LC-MS/MS.

On to STAT3 (from UniProt P40763 1-770), for which the binding result is on record as “binds”.
